Consider 1 molecule from article PMC5667976.

Amino acid sequences for entries named in this document (tags omitted).
UniProt O15379: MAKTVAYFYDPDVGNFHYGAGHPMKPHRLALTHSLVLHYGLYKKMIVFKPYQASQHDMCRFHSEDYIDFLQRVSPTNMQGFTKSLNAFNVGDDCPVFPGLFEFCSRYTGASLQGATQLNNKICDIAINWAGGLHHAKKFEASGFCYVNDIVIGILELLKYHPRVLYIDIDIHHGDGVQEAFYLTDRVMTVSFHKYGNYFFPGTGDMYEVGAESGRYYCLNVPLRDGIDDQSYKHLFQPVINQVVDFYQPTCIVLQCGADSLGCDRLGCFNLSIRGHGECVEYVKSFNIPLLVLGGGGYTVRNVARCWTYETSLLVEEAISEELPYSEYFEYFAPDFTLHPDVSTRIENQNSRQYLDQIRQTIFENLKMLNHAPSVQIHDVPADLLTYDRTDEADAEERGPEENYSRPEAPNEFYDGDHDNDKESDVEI

The experiment deals with phospho-histone deacetylase 3 (human (endogenous in LY-10)) (UniProt O15379). The experiment can be described thus: co-IP; LY-10 cell lysate; immunoprecipitates captured with Sepharose beads, washed four times with RIPA buffer, analyzed by immunoblotting; which protein was precipitated is not told. Background: In western blotting, separated proteins are transferred to a membrane and probed.

No constants are given. Whether binding was seen depends on the method and setting. In cells and extracts the contact can be indirect. Some entries that bind do so weakly or less than the wild type.

B1: Heme oxygenase-1 (enzyme, UniProt P09601 1-288)
chain: MERPQPDSMPQDLSEALKEATKEVHTQAENAEFMRNFQKGQVTRDGFKLVMASLYHIYVALEEEIERNKESPVFAPVYFPEELHRKAALEQDLAFWYGPRWQEVIPYTPAMQRYVKRLHEVGRTEPELLVAHAYTRYLGDLSGGQVLKKIAQKALDLPSSGEGLAFFTFPNIASATKFKQLYRSRMNSLEMTPAVRQRVIEEAKTAFLLNIQLFEELQELLTHDTKDQSPSRAPGLRQRASNKVQDSAPVETPRGKPPLNTRSQAPLLRWVLTLSFLVATVAVGLYAM
On to B1, for which the binding entry is given as “binds”.
